Reference: PubChem BioAssay AID1224830 (NIAID, 2016)
The deposit covers about 18,000 reagents; shown is a part drawn at random. About 2,900 of them (16%) count as active. 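Calls are made per well; low scores hint the gene aids the LPS response, high scores that it dampens it.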 Repeated entries: four replicate wells of each siRNA pool.

- Assay: 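Regulators of TLR4 signalling towards TNF-alpha in macrophage-like cells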 (primary screen)
- Cells: human THP-1 monocytic leukaemia cells, TNF dual-luciferase reporter clone, PMA-differentiated to macrophage-like cells
- Knock-down reagent: siRNA pool against human genes, 50 nM
- Time to read-out: LPS for 4 h, given about 3 days after siRNA transfection
- Conditions: bacterial LPS (TLR4 ligand), 10 ng/ml
- Measured: 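Ratio of firefly to renilla light, scaled to the plate median and expressed as a robust z-score per replicate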
- Reading the numbers: TNF reporter robust z-score: higher = stronger TNF reporter response to LPS
- Rule for the call: 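a well is active when its z-score exceeds 2.8 or falls below -1.5; control wells carry no call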

Gene | TNF reporter robust z-score | activity call
DOP1A | -0.55 | inactive
DOP1A | 0.1 | inactive
DOP1A | -0.71 | inactive
DOP1A | 0.11 | inactive
SYCP2 | -0.01 | inactive
SYCP2 | 0.96 | inactive
SYCP2 | 0.3 | inactive
SYCP2 | 0.45 | inactive
KLHL5 | -0.77 | inactive
KLHL5 | -0.62 | inactive
KLHL5 | -0.94 | inactive
KLHL5 | -0.89 | inactive
GRP | -0.41 | inactive
GRP | -0.63 | inactive
GRP | 0.31 | inactive
GRP | -0.49 | inactive
RIMOC1 | -1 | inactive
RIMOC1 | -0.25 | inactive
RIMOC1 | -0.54 | inactive
RIMOC1 | -0.23 | inactive
BTC | 1.3 | inactive
BTC | 3.57 | active
BTC | -0.18 | inactive
BTC | 0.2 | inactive
DEFB115 | 1.21 | inactive
DEFB115 | 1.77 | inactive
DEFB115 | 1.67 | inactive
DEFB115 | 0.55 | inactive
IL7R | -0.31 | inactive
IL7R | 0.74 | inactive
IL7R | 0.19 | inactive
IL7R | -0.42 | inactive
CRIPTO | -0.95 | inactive
CRIPTO | -0.24 | inactive
CRIPTO | -0.64 | inactive
CRIPTO | 0.56 | inactive
S100P | -0.54 | inactive
S100P | -0.51 | inactive
S100P | -0.52 | inactive
S100P | -0.94 | inactive
SLCO1B1 | -0.07 | inactive
SLCO1B1 | 0.17 | inactive
SLCO1B1 | -0.47 | inactive
SLCO1B1 | 0.21 | inactive
ABCA7 | 1.23 | inactive
ABCA7 | 1.24 | inactive
ABCA7 | 1.05 | inactive
ABCA7 | 1.14 | inactive
AADACL4 | -0.46 | inactive
AADACL4 | -0.77 | inactive
AADACL4 | -0.37 | inactive
AADACL4 | 0.53 | inactive
CREB3L4 | 0.63 | inactive
CREB3L4 | 0.82 | inactive
CREB3L4 | 0.92 | inactive
CREB3L4 | 0.15 | inactive
SLC4A1AP | -0.73 | inactive
SLC4A1AP | -1.21 | inactive
SLC4A1AP | -1.06 | inactive
SLC4A1AP | 0.32 | inactive
SERPINC1 | -0.41 | inactive
SERPINC1 | 0.28 | inactive
SERPINC1 | 0.03 | inactive
SERPINC1 | -0.05 | inactive
CFAP44 | 0.39 | inactive
CFAP44 | 0.63 | inactive
CFAP44 | 1.03 | inactive
CFAP44 | 0.51 | inactive
NEUROG2 | -0.48 | inactive
NEUROG2 | 0.06 | inactive
NEUROG2 | -0.98 | inactive
NEUROG2 | -0.36 | inactive
FRS3 | -0.76 | inactive
FRS3 | -0.21 | inactive
FRS3 | -1.07 | inactive
FRS3 | -0.69 | inactive

Not a retest: 12 of the entries above.
Gene | TNF reporter robust z-score | activity call
SLC4A1AP | -1.21 | inactive
SLC4A1AP | -1.06 | inactive
SLC4A1AP | 0.32 | inactive
SERPINC1 | -0.41 | inactive
SERPINC1 | 0.28 | inactive
SERPINC1 | 0.03 | inactive
SERPINC1 | -0.05 | inactive
CFAP44 | 0.39 | inactive
CFAP44 | 0.63 | inactive
CFAP44 | 1.03 | inactive
CFAP44 | 0.51 | inactive
NEUROG2 | -0.48 | inactive
